# Measured values published in patent US11433099B2, “Immunotherapy with B*08 restricted peptides and combination of peptides against cancers and related methods” (Immatics Biotechnologies GmbH, priority 2018, dated 2022).
# System: HLA peptide pools from tumor and normal tissue samples
# Experiment: Identification and relative LC-MS quantitation of HLA-presented tumor associated peptides (presentation profiles)
# Set-up: species or system human
# Conditions: cancer entities on which the peptide was found presented (Table 8A); value = entity abbreviations
row,Substance,Peptide Presentation on cancer entities
1,111 (GAGLRITAPL; listed as Homo sapiens) [compound 111],"NSCLCsquam, OC"
2,112 (NALDPLSAL; listed as Homo sapiens) [compound 112],"GBM, NSCLCadeno, OSCAR"
3,113 (MEKGLASL; listed as Homo sapiens) [compound 113],HNSCC
4,114 (PVKPKFYL; listed as Homo sapiens) [compound 114],MEL
5,116 (FTQNPRVQL; listed as Homo sapiens) [compound 116],MEL
6,117 (VGPNGFKSL; listed as Homo sapiens) [compound 117],"PACA, UEC"
7,118 (MAFVKHLL; listed as Homo sapiens) [compound 118],MEL
8,120 (AQRSEMVTL; listed as Homo sapiens) [compound 120],NSCLCsquam
9,121 (YSQLSISL; listed as Homo sapiens) [compound 121],MEL
10,122 (ESSAQPTAL; listed as Homo sapiens) [compound 122],"GBM, HNSCC"
11,123 (SLLPFTLSF; listed as Homo sapiens) [compound 123],MEL
12,124 (HSWTRTSV; listed as Homo sapiens) [compound 124],PRCA
13,126 (TAAEARLSL; listed as Homo sapiens) [compound 126],"AML, SCLC"
14,127 (EPVIRTVSI; listed as Homo sapiens) [compound 127],HNSCC
15,128 (HFHNRHVF; listed as Homo sapiens) [compound 128],"HNSCC, OSCAR, UEC"
16,129 (HRILRLPAL; listed as Homo sapiens) [compound 129],MEL
17,130 (LPAPYQHQL; listed as Homo sapiens) [compound 130],NSCLCother
18,131 (MSTKTTSI; listed as Homo sapiens) [compound 131],"GBM, PACA, RCC"
19,133 (QATPRVRIL; listed as Homo sapiens) [compound 133],"MEL, NSCLCsquam, UEC"
20,135 (EYLETKRLAF; listed as Homo sapiens) [compound 135],HNSCC
21,136 (KMFYRKDVM; listed as Homo sapiens) [compound 136],GBC
22,140 (IAVDKPITL; listed as Homo sapiens) [compound 140],"MEL, NSCLCsquam"
23,141 (AQLKLVAL; listed as Homo sapiens) [compound 141],NSCLCadeno
24,143 (DADLREQAL; listed as Homo sapiens) [compound 143],"HNSCC, NSCLCsquam, PACA"
25,144 (IEQIRAVL; listed as Homo sapiens) [compound 144],HNSCC
26,147 (HAMDGASHL; listed as Homo sapiens) [compound 147],MEL

row,Substance,Peptide Presentation on cancer entities
1,148 (DVNPVSLQL; listed as Homo sapiens) [compound 148],"HNSCC, NSCLCother"
2,151 (DRHLTNRVL; listed as Homo sapiens) [compound 151],MEL
3,155 (LPASFPAVL; listed as Homo sapiens) [compound 155],NSCLCother
4,156 (ILKEQSSSSF; listed as Homo sapiens) [compound 156],"HNSCC, NSCLCsquam"
5,158 (DVIIKGNGL; listed as Homo sapiens) [compound 158],"HNSCC, NSCLCadeno, NSCLCother, NSCLCsquam, OSCAR, RCC"
6,159 (DLRNKIIA; listed as Homo sapiens) [compound 159],"HNSCC, NSCLCsquam"
7,160 (LPINNTHI; listed as Homo sapiens) [compound 160],"NSCLCsquam, UBC"
8,162 (LFKQTKINL; listed as Homo sapiens) [compound 162],NSCLCsquam
9,163 (EVMAQFKEI; listed as Homo sapiens) [compound 163],"OSCAR, UBC"
10,164 (LPAPIPTLL; listed as Homo sapiens) [compound 164],NSCLCother
11,165 (QNSLRHNL; listed as Homo sapiens) [compound 165],CCC
12,166 (VLSGGRILAL; listed as Homo sapiens) [compound 166],HCC
13,169 (YELNNLHAL; listed as Homo sapiens) [compound 169],MEL
14,170 (SPANVRGQSL; listed as Homo sapiens) [compound 170],GBC
15,171 (FPSQVPKQVL; listed as Homo sapiens) [compound 171],NSCLCother
16,172 (PYEKVSRL; listed as Homo sapiens) [compound 172],CCC
17,173 (YPLLKDPSL; listed as Homo sapiens) [compound 173],"CCC, PACA, SCLC"
18,174 (HAMPSPRIL; listed as Homo sapiens) [compound 174],NSCLCother
19,175 (MRFQQFLFA; listed as Homo sapiens) [compound 175],HNSCC
20,177 (SVPVRSSPL; listed as Homo sapiens) [compound 177],NHL
21,179 (LPLTEHEL; listed as Homo sapiens) [compound 179],"HNSCC, NSCLCother, SCLC"
22,181 (SIRSSYSRF; listed as Homo sapiens) [compound 181],UEC
23,184 (DRLKPLKM; listed as Homo sapiens) [compound 184],MEL
24,185 (MELKTVKPI; listed as Homo sapiens) [compound 185],"CCC, GBM, NSCLCother, NSCLCsquam"
25,186 (DLISPRQPRL; listed as Homo sapiens) [compound 186],HNSCC
26,188 (EIMEKTTL; listed as Homo sapiens) [compound 188],"MEL, NSCLCsquam"

row,Substance,Peptide Presentation on cancer entities
1,189 (APDNVLLTL; listed as Homo sapiens) [compound 189],"BRCA, GBM, HCC, NSCLCsquam, OSCAR, SCLC"
2,190 (ELLNRIYF; listed as Homo sapiens) [compound 190],MEL
3,191 (RPLKPGEVL; listed as Homo sapiens) [compound 191],BRCA
4,192 (EEKHFTTL; listed as Homo sapiens) [compound 192],NSCLCadeno
5,193 (LGGLRLTAL; listed as Homo sapiens) [compound 193],NSCLCadeno
6,194 (RAIEHVLQV; listed as Homo sapiens) [compound 194],NSCLCother
7,195 (EGNQKSVI; listed as Homo sapiens) [compound 195],"NHL, NSCLCadeno, NSCLCsquam, PACA, UEC"
8,196 (LDLRQKVL; listed as Homo sapiens) [compound 196],"BRCA, CCC, CLL, CRC, GBC, GBM, GC, HCC, HNSCC, MEL, NHL, NSCLCadeno, NSCLCother, NSCLCsquam, OSCAR, PACA, PRCA, RCC, SCLC, UBC, UEC"
9,198 (FPLTSIIAI; listed as Homo sapiens) [compound 198],NSCLCother
10,199 (IPFIHLPEI; listed as Homo sapiens) [compound 199],"GBM, HCC"
11,200 (VAAARAVPV; listed as Homo sapiens) [compound 200],MEL
12,201 (TASAMQHVL; listed as Homo sapiens) [compound 201],NSCLCother
13,202 (RIPEKASFL; listed as Homo sapiens) [compound 202],HCC
14,203 (DVYTQVSAF; listed as Homo sapiens) [compound 203],AML
15,204 (MSPLLRSI; listed as Homo sapiens) [compound 204],"BRCA, CCC, CRC, GBC, GC, HCC, HNSCC, MEL, NSCLCother, NSCLCsquam, PACA, UEC"
16,205 (YMQYGFLSM; listed as Homo sapiens) [compound 205],"NSCLCsquam, OC"
17,207 (LRKRKSPE; listed as Homo sapiens) [compound 207],HNSCC
18,208 (LPPPQPLSL; listed as Homo sapiens) [compound 208],NSCLCother
19,209 (SRFGKFVQL; listed as Homo sapiens) [compound 209],"GC, HNSCC and UEC"
20,210 (QPNTHQLL; listed as Homo sapiens) [compound 210],HNSCC
21,211 (DVISKGVSL; listed as Homo sapiens) [compound 211],MEL
22,212 (EEYKFPSL; listed as Homo sapiens) [compound 212],"NSCLCsquam, UEC"
23,213 (FPSLFINQF; listed as Homo sapiens) [compound 213],"NSCLCsquam, UEC"
24,214 (DAPRHRLL; listed as Homo sapiens) [compound 214],NSCLCadeno
25,215 (NPLIEIISI; listed as Homo sapiens) [compound 215],SCLC
26,216 (EARPPSPAV; listed as Homo sapiens) [compound 216],GBM
